PubChem BioAssay AID1259308 | NCATS | 2017
In all, the deposit lists about 59,000 reagents; this is an unselected part. About 1,510 of them (2.6%) count as active. 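Calls use total luciferase alone and ignore viability, so some active siRNAs may act by altering cell number.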 Unmarked entries are inactive. Reagents against one gene are numbered here. Not all columns of the deposit are shown.

- Aim: 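Candidate targets for better recombinant protein yield in mammalian cells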 (primary screen)
- Cell system: human HEK293 embryonic kidney cells stably expressing firefly luciferase (HEK-CMV-Luc2-Hygro)
- Knock-down reagent: single siRNA against human genes, 0.8 pmol siRNA per well
- Timing: 72 h
- Measured: 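Luciferase light (ONE-Glo) measured on one replicate plate set and viability (CellTiter-Glo) on the other, scaled to a negative control siRNA, with robust z-scores and luciferase per cell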
- Scale: total luciferase, z-score: higher = more reporter protein produced
- Active means: 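Active when the median/MAD z-score for overall luciferase is greater than 3; a gene was taken forward for validation with new siRNAs if at least two of its three siRNAs passed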
- Meaning of the calls: active = raised luciferase; inactive = no rise

{"target gene": "PFAS", "reagent no.": 1, "total luciferase, z-score": -0.274}
{"target gene": "PFAS", "reagent no.": 2, "total luciferase, z-score": -0.74}
{"target gene": "PFAS", "reagent no.": 3, "total luciferase, z-score": -0.93}
{"target gene": "TTYH3", "reagent no.": 1, "total luciferase, z-score": 0}
{"target gene": "TTYH3", "reagent no.": 2, "total luciferase, z-score": 1.23}
{"target gene": "TTYH3", "reagent no.": 3, "total luciferase, z-score": 0.28}
{"target gene": "ASAP3", "reagent no.": 1, "total luciferase, z-score": -0.0146}
{"target gene": "ASAP3", "reagent no.": 2, "total luciferase, z-score": 0.565}
{"target gene": "ASAP3", "reagent no.": 3, "total luciferase, z-score": 0.243}
{"target gene": "C5orf15", "reagent no.": 1, "total luciferase, z-score": 0.576}
{"target gene": "C5orf15", "reagent no.": 2, "total luciferase, z-score": 0.0559}
{"target gene": "C5orf15", "reagent no.": 3, "total luciferase, z-score": 2.33}
{"target gene": "RAB34", "reagent no.": 1, "total luciferase, z-score": -1.18}
{"target gene": "RAB34", "reagent no.": 2, "total luciferase, z-score": 0.707}
{"target gene": "RAB34", "reagent no.": 3, "total luciferase, z-score": -2.03}
{"target gene": "ZDHHC9", "reagent no.": 1, "total luciferase, z-score": 0.0603}
{"target gene": "ZDHHC9", "reagent no.": 2, "total luciferase, z-score": -0.391}
{"target gene": "ZDHHC9", "reagent no.": 3, "total luciferase, z-score": -0.442}

Individual results from the list.
Entry of ZDHHC9 #2 in “total luciferase, z-score”: -0.391
RAB34 #3, total luciferase, z-score → -2.03
Entry of TTYH3 #1 in “total luciferase, z-score”: 0

Further reagents follow.
{"target gene": "MMP17", "reagent no.": 1, "total luciferase, z-score": -0.277}
{"target gene": "MMP17", "reagent no.": 2, "total luciferase, z-score": -0.731}
{"target gene": "MMP17", "reagent no.": 3, "total luciferase, z-score": 1.02}
{"target gene": "IMPDH2", "reagent no.": 1, "total luciferase, z-score": 0.119}
{"target gene": "IMPDH2", "reagent no.": 2, "total luciferase, z-score": 2.29}
{"target gene": "IMPDH2", "reagent no.": 3, "total luciferase, z-score": 0.164}
{"target gene": "MOCS2", "reagent no.": 1, "total luciferase, z-score": 0.2}
{"target gene": "MOCS2", "reagent no.": 2, "total luciferase, z-score": 0.316}
{"target gene": "MOCS2", "reagent no.": 3, "total luciferase, z-score": -0.431}
{"target gene": "DCT", "reagent no.": 1, "total luciferase, z-score": -0.265}
{"target gene": "DCT", "reagent no.": 2, "total luciferase, z-score": 0.623}
{"target gene": "DCT", "reagent no.": 3, "total luciferase, z-score": -0.0877}
{"target gene": "COL19A1", "reagent no.": 1, "total luciferase, z-score": -1.11}
{"target gene": "COL19A1", "reagent no.": 2, "total luciferase, z-score": 1.37}
{"target gene": "COL19A1", "reagent no.": 3, "total luciferase, z-score": -0.554}
